Here are results for one molecule from PMC9794786.

Chains of the proteins cited; added tags and fusions are not shown.
UniProt Q9HCK8: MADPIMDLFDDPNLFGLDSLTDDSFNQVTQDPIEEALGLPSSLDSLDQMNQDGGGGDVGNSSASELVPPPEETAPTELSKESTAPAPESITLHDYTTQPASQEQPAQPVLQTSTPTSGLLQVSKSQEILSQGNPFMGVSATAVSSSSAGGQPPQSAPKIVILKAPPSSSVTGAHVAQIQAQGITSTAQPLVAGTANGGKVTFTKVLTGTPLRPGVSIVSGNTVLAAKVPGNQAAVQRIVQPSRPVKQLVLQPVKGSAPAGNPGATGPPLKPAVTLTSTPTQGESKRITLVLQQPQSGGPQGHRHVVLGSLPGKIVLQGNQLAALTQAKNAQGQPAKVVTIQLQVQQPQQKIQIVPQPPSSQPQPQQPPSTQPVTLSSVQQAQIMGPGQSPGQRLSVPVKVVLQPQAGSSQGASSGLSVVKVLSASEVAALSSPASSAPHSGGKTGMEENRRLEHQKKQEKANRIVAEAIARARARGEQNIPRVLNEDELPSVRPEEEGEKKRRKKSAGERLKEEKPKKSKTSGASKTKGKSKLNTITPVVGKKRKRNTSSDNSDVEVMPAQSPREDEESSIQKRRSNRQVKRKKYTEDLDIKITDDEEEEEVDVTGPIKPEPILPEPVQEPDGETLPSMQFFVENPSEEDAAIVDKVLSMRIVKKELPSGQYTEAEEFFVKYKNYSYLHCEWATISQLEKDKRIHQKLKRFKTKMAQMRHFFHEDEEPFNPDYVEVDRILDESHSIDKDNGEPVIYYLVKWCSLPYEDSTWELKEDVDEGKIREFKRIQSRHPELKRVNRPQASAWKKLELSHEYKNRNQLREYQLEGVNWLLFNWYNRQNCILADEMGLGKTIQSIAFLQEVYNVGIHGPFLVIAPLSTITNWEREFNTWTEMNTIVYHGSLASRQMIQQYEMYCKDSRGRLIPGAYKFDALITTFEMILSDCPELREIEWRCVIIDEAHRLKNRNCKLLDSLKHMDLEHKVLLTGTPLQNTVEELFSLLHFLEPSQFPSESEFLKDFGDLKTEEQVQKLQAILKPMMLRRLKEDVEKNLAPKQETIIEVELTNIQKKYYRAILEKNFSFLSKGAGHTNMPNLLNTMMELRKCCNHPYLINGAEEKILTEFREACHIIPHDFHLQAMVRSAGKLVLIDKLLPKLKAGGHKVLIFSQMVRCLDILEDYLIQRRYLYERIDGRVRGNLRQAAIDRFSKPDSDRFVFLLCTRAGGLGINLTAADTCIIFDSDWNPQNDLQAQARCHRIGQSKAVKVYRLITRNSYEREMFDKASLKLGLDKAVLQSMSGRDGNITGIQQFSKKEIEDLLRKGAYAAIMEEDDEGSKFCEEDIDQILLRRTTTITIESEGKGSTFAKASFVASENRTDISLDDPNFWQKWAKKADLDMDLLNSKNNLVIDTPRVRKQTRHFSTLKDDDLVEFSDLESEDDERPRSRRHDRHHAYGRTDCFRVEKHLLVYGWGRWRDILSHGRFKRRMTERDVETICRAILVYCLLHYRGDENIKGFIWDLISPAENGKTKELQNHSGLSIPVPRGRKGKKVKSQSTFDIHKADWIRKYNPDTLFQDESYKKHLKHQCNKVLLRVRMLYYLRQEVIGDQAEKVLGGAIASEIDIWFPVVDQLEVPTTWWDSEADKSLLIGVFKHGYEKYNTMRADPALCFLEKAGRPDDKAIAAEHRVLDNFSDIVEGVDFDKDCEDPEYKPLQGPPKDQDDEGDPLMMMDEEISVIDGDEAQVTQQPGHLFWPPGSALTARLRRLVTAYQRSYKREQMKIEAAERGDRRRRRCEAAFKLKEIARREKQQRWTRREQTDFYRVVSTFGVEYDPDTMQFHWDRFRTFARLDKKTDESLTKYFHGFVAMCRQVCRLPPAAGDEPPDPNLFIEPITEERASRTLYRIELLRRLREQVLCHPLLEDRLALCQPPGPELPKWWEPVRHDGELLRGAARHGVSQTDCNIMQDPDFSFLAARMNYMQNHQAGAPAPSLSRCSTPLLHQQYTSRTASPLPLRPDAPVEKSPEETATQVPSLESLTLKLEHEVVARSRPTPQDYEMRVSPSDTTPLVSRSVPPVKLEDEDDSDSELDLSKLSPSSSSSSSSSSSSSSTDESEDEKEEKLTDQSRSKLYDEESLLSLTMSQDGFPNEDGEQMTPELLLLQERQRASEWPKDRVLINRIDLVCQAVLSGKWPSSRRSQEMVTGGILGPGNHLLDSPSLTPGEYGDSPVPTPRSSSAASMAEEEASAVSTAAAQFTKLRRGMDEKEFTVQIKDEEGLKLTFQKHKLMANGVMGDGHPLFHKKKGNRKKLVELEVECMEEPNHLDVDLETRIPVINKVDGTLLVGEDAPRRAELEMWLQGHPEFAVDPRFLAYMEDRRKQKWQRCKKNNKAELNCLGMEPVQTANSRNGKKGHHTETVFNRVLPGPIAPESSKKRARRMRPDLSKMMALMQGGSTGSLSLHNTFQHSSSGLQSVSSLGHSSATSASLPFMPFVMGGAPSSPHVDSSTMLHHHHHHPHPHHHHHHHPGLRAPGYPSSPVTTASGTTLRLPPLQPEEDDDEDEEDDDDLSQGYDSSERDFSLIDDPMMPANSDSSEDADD

Results are given in words; binding and its absence hold for the method and conditions named. Binding seen in cells or lysates may run through a third protein. Some entries that bind do so weakly or less than the wild type.

The target in the assay is chromodomain helicase DNA-binding protein CHD8 (human (endogenous in stem cell-derived neurons)) (UniProt Q9HCK8). In words: co-IP; anti-CHD8 antibody on protein G agarose beads; RIPA lysate of approximately 50 million human neurons grown glia-free, differentiated from stem cells for ten days; lysate incubated with beads for three hours; western blot for CHD8 and ELK1. (A western blot detects proteins with antibodies after separation by electrophoresis.)

B1: ELK1 (protein, UniProt P19419 1-428)
chain: MDPSVTLWQFLLQLLREQGNGHIISWTSRDGGEFKLVDAEEVARLWGLRKNKTNMNYDKLSRALRYYYDKNIIRKVSGQKFVYKFVSYPEVAGCSTEDCPPQPEVSVTSTMPNVAPAAIHAAPGDTVSGKPGTPKGAGMAGPGGLARSSRNEYMRSGLYSTFTIQSLQPQPPPHPRPAVVLPSAAPAGAAAPPSGSRSTSPSPLEACLEAEEAGLPLQVILTPPEAPNLKSEELNVEPGLGRALPPEVKVEGPKEELEVAGERGFVPETTKAEPEVPPQEGVPARLPAVVMDTAGQAGGHAASSPEISQPQKGRKPRDLELPLSPSLLGGPGPERTPGSGSGSGLQAPGPALTPSLLPTHTLTPVLLTPSSLPPSIHFWSTLSPIAPRSPAKLSFQFPSSGSAQVHIPSISVDGLSTPVVLSPGPQKP
B1: the binding entry was “binds”.
